The results are deposited in PubChem (AID504749; NCATS, 2011).

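A panel of P. falciparum strains inside erythrocytes is exposed to compounds for three days, then a DNA-binding dye reports the amount of parasite DNA.
Each compound was titrated across a series from about 0.000037 to 29 µM.
The number is the fitted AC50, the concentration giving a half-maximal change in signal; a lower value means higher potency, whether the curve shows a decrease or an increase.
Calls follow the curve class and fit quality: every row here is inconclusive, covering signal-raising curves and weak, poorly fitted, partial or highest-dose-only inhibition curves.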

Values are in µM.
All entries here are filed as inconclusive.
Only part of the assay is shown, chiefly results filed as inconclusive.
Potencies fitted to partial, single-point or poorly fitting curves are rough.

| # | SMILES | setting | Potency (µM) | remark |
|---|---|---|---|---|
| 1 | `Cc1cccc(C)c1NC(=O)[C@H](C)N` | CP192 | 8.087 | inhibitor, single point |
| 2 | `Cc1cccc(C)c1NC(=O)[C@H](C)N` | CP201 | 5.726 | inhibitor, single point |
| 3 | `Cc1cccc(C)c1NC(=O)[C@H](C)N` | CP211 | 5.726 | inhibitor, single point |
| 4 | `Cc1cccc(C)c1NC(=O)[C@H](C)N` | CP305 | 5.103 | inhibitor, single point |
| 5 | `Cc1cccc(C)c1NC(=O)[C@H](C)N` | CP325 | 8.087 | inhibitor, single point |
| 6 | `Cc1cccc(C)c1NC(=O)[C@H](C)N` | CP262 | 5.726 | inhibitor, single point |
| 7 | `Cc1cccc(C)c1NC(=O)[C@H](C)N` | CP315 | 8.087 | inhibitor, single point |
| 8 | `Cc1cccc(C)c1NC(=O)[C@H](C)N` | CP268 | 8.087 | inhibitor, single point |
| 9 | `Cc1cccc(C)c1NC(=O)[C@H](C)N` | CP194 | 7.208 | inhibitor, single point |
| 10 | `CCC(=O)O[C@@]1(C(=O)CCl)C(C)CC2C3CCC4=CC(=O)C=C[C@@]4(C)[C@]3(F)C(O)C[C@]21C` (stereo partly drawn) | CP286 | 11.22 | inhibitor, single point |
| 11 | `CCC(=O)O[C@@]1(C(=O)CCl)C(C)CC2C3CCC4=CC(=O)C=C[C@@]4(C)[C@]3(F)C(O)C[C@]21C` (stereo partly drawn) | ECU | 10 | inhibitor, single point |
| 12 | `CCC(=O)O[C@@]1(C(=O)CCl)C(C)CC2C3CCC4=CC(=O)C=C[C@@]4(C)[C@]3(F)C(O)C[C@]21C` (stereo partly drawn) | TAB165 | 11.22 | inhibitor, single point |
| 13 | `CCC(=O)O[C@@]1(C(=O)CCl)C(C)CC2C3CCC4=CC(=O)C=C[C@@]4(C)[C@]3(F)C(O)C[C@]21C` (stereo partly drawn) | ATS189 | 11.22 | inhibitor, single point |
| 14 | `CCC(=O)O[C@@]1(C(=O)CCl)C(C)CC2C3CCC4=CC(=O)C=C[C@@]4(C)[C@]3(F)C(O)C[C@]21C` (stereo partly drawn) | CP211 | 16.94 | inhibitor, single point |
| 15 | `CCC(=O)O[C@@]1(C(=O)CCl)C(C)CC2C3CCC4=CC(=O)C=C[C@@]4(C)[C@]3(F)C(O)C[C@]21C` (stereo partly drawn) | CP329 | 16.94 | inhibitor, single point |
| 16 | `CCC(=O)O[C@@]1(C(=O)CCl)C(C)CC2C3CCC4=CC(=O)C=C[C@@]4(C)[C@]3(F)C(O)C[C@]21C` (stereo partly drawn) | CP315 | 13.46 | inhibitor, single point |
| 17 | `CCC(=O)O[C@@]1(C(=O)CCl)C(C)CC2C3CCC4=CC(=O)C=C[C@@]4(C)[C@]3(F)C(O)C[C@]21C` (stereo partly drawn) | CP201 | 16.94 | inhibitor, single point |
| 18 | `CCC(=O)O[C@@]1(C(=O)CCl)C(C)CC2C3CCC4=CC(=O)C=C[C@@]4(C)[C@]3(F)C(O)C[C@]21C` (stereo partly drawn) | CP215 | 12 | inhibitor, single point |
| 19 | `CCC(=O)O[C@@]1(C(=O)CCl)C(C)CC2C3CCC4=CC(=O)C=C[C@@]4(C)[C@]3(F)C(O)C[C@]21C` (stereo partly drawn) | CP325 | 19.01 | inhibitor, single point |
| 20 | `CCC(=O)O[C@@]1(C(=O)CCl)C(C)CC2C3CCC4=CC(=O)C=C[C@@]4(C)[C@]3(F)C(O)C[C@]21C` (stereo partly drawn) | SC27B | 12.59 | inhibitor, single point |
| 21 | `CCC(=O)O[C@@]1(C(=O)CCl)C(C)CC2C3CCC4=CC(=O)C=C[C@@]4(C)[C@]3(F)C(O)C[C@]21C` (stereo partly drawn) | CP268 | 19.01 | inhibitor, single point |
| 22 | `CCC(=O)O[C@@]1(C(=O)CCl)C(C)CC2C3CCC4=CC(=O)C=C[C@@]4(C)[C@]3(F)C(O)C[C@]21C` (stereo partly drawn) | CP269 | 19.01 | inhibitor, single point |
| 23 | `CCC(=O)O[C@@]1(C(=O)CCl)C(C)CC2C3CCC4=CC(=O)C=C[C@@]4(C)[C@]3(F)C(O)C[C@]21C` (stereo partly drawn) | CP305 | 19.01 | inhibitor, single point |
| 24 | `CCC(=O)O[C@@]1(C(=O)CCl)C(C)CC2C3CCC4=CC(=O)C=C[C@@]4(C)[C@]3(F)C(O)C[C@]21C` (stereo partly drawn) | HB3 | 11.22 | inhibitor, partial curve |
| 25 | `CCC(=O)O[C@@]1(C(=O)CCl)C(C)CC2C3CCC4=CC(=O)C=C[C@@]4(C)[C@]3(F)C(O)C[C@]21C` (stereo partly drawn) | 3D7 | 17.78 | inhibitor, single point |
| 26 | `CCC(=O)O[C@@]1(C(=O)CCl)C(C)CC2C3CCC4=CC(=O)C=C[C@@]4(C)[C@]3(F)C(O)C[C@]21C` (stereo partly drawn) | CP262 | 15.1 | inhibitor, single point |
| 27 | `CCC(=O)O[C@@]1(C(=O)CCl)C(C)CC2C3CCC4=CC(=O)C=C[C@@]4(C)[C@]3(F)C(O)C[C@]21C` (stereo partly drawn) | CP256 | 12.59 | inhibitor, single point |
| 28 | `CCC(=O)O[C@@]1(C(=O)CCl)C(C)CC2C3CCC4=CC(=O)C=C[C@@]4(C)[C@]3(F)C(O)C[C@]21C` (stereo partly drawn) | CP217 | 11.22 | inhibitor, single point |
| 29 | `CCC(=O)O[C@@]1(C(=O)CCl)C(C)CC2C3CCC4=CC(=O)C=C[C@@]4(C)[C@]3(F)C(O)C[C@]21C` (stereo partly drawn) | CP191 | 10 | inhibitor, single point |
| 30 | `CCC(=O)O[C@@]1(C(=O)CCl)C(C)CC2C3CCC4=CC(=O)C=C[C@@]4(C)[C@]3(F)C(O)C[C@]21C` (stereo partly drawn) | PC15 | 11.22 | inhibitor, single point |
| 31 | `CCC(=O)O[C@@]1(C(=O)CCl)C(C)CC2C3CCC4=CC(=O)C=C[C@@]4(C)[C@]3(F)C(O)C[C@]21C` (stereo partly drawn) | CP185 | 10 | inhibitor, single point |
| 32 | `CC(=O)OC[C@H]1O[C@@](COC(C)=O)(O[C@H]2O[C@H](COC(C)=O)[C@@H](OC(C)=O)[C@H](OC(C)=O)[C@H]2OC(C)=O)[C@@H](OC(C)=O)[C@@H]1OC(C)=O` | parasite line A | 3.548 | inhibitor, single point |
| 33 | `CC(=O)OC[C@H]1O[C@@](COC(C)=O)(O[C@H]2O[C@H](COC(C)=O)[C@@H](OC(C)=O)[C@H](OC(C)=O)[C@H]2OC(C)=O)[C@@H](OC(C)=O)[C@@H]1OC(C)=O` | ATS189 | 2.239 | inhibitor, single point |
| 34 | `CC(=O)OC[C@H]1O[C@@](COC(C)=O)(O[C@H]2O[C@H](COC(C)=O)[C@@H](OC(C)=O)[C@H](OC(C)=O)[C@H]2OC(C)=O)[C@@H](OC(C)=O)[C@@H]1OC(C)=O` | CP252 | 2.818 | inhibitor, single point |
| 35 | `CC(=O)OC[C@H]1O[C@@](COC(C)=O)(O[C@H]2O[C@H](COC(C)=O)[C@@H](OC(C)=O)[C@H](OC(C)=O)[C@H]2OC(C)=O)[C@@H](OC(C)=O)[C@@H]1OC(C)=O` | CP250 | 3.981 | inhibitor, single point |
| 36 | `CC(=O)OC[C@H]1O[C@@](COC(C)=O)(O[C@H]2O[C@H](COC(C)=O)[C@@H](OC(C)=O)[C@H](OC(C)=O)[C@H]2OC(C)=O)[C@@H](OC(C)=O)[C@@H]1OC(C)=O` | PAD | 3.981 | inhibitor, single point |

Some entries from above, unchanged:

Result for CCC(=O)O[C@@]1(C(=O)CCl)C(C)CC2C3CCC4=CC(=O)C=C[C@@]4(C)[C@]3(F)C(O)C[C@]21C (stereo partly drawn) [SC27B] was Potency 12.59 µM (inhibitor, single point).
Result for CC(=O)OC[C@H]1O[C@@](COC(C)=O)(O[C@H]2O[C@H](COC(C)=O)[C@@H](OC(C)=O)[C@H](OC(C)=O)[C@H]2OC(C)=O)[C@@H](OC(C)=O)[C@@H]1OC(C)=O [ATS189] was Potency 2.239 µM (inhibitor, single point).
Result for CC(=O)OC[C@H]1O[C@@](COC(C)=O)(O[C@H]2O[C@H](COC(C)=O)[C@@H](OC(C)=O)[C@H](OC(C)=O)[C@H]2OC(C)=O)[C@@H](OC(C)=O)[C@@H]1OC(C)=O [PAD] was Potency 3.981 µM (inhibitor, single point).
Result for CCC(=O)O[C@@]1(C(=O)CCl)C(C)CC2C3CCC4=CC(=O)C=C[C@@]4(C)[C@]3(F)C(O)C[C@]21C (stereo partly drawn) [3D7] was Potency 17.78 µM (inhibitor, single point).